Assay results taken from PMC13545989.
Substitutions are numbered along the chain they refer to. No constants are given. Whether binding was seen depends on the method and setting. Binding seen in cells or lysates may run through a third protein. Binding can be weak; no strength is given. Tags and fused reporters may be left off the sequences shown.

Tests used:
Experiment in all cases: co-IP; FLAG purification of Miro1/FP/FLAG/I3-01 synthetic cargo from hTERT RPE-1 cell lines co-expressing TRAK/mScarlet variants; immunoblot of the associated motor-adaptor components (kinesin, dynein, dynactin); also done after kinesin RNAi (fig. S4E)
[1] = biological target: T1, TRAK2/mScarlet fusion protein (wild type) (UniProt O60296)
T1 sequence: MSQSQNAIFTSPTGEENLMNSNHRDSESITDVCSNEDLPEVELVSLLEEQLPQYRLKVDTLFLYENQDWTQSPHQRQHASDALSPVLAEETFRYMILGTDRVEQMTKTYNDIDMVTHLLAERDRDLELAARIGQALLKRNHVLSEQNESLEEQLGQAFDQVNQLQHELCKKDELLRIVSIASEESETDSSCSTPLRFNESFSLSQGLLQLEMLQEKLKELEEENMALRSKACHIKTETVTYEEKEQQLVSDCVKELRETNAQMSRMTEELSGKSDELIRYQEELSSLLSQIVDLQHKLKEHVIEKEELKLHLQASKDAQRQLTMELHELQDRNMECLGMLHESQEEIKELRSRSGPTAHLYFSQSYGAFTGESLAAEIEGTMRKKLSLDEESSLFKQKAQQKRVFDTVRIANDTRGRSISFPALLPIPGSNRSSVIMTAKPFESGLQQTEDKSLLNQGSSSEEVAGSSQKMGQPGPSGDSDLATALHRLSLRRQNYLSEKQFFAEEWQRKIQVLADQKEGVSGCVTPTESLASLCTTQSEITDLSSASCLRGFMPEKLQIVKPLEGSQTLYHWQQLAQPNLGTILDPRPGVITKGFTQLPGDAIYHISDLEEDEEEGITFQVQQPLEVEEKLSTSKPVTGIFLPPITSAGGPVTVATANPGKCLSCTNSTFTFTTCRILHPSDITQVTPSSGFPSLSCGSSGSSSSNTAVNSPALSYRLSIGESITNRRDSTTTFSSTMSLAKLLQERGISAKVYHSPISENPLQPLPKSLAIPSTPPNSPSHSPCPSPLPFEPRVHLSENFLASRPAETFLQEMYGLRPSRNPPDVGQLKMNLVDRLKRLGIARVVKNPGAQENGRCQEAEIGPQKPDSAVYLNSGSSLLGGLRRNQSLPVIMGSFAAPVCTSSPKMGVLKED

[2] = biological target: T2, TRAK2 chimera with the helix region (aa 81-106) of TRAK1 (mScarlet fusion) (UniProt O60296)
T2 sequence: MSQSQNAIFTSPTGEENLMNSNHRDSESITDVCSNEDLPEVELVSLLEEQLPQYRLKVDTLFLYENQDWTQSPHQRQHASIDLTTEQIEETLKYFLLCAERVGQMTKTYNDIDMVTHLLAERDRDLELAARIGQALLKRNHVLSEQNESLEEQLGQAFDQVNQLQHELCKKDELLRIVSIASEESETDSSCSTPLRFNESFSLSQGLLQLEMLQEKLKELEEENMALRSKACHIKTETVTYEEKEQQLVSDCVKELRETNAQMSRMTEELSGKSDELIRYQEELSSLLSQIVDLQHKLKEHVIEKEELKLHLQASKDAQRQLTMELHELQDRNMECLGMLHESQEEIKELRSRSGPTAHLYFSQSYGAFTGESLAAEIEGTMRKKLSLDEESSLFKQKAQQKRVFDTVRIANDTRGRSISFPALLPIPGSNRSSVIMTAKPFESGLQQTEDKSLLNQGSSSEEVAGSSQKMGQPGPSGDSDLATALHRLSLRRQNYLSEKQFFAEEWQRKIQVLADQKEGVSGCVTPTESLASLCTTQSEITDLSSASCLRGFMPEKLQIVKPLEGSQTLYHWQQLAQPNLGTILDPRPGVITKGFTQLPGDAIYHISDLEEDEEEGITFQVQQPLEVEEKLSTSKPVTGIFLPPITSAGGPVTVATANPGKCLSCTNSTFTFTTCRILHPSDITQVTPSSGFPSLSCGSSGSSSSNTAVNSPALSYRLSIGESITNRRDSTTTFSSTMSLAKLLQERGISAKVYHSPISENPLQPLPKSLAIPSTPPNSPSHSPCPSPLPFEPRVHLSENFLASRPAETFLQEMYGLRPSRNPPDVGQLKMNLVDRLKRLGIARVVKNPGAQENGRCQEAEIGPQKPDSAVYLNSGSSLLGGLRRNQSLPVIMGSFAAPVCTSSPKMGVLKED

[3] = biological target: T3, TRAK2 E242R (mScarlet fusion) (UniProt O60296)
T3 sequence: T1 sequence with E242R

binding [1]: binds
binding [2]: binds
binding [3]: binds
Substance: kinesin-1 (human (endogenous in hTERT RPE-1))
